Laboratory results as given in patent US20050064014A1, “Use of cystathionine” (priority 2001, published 2005).

Experiment: Odor after heat treatment of supplemented SONDALIS (physicochemical and organoleptic behavior)
Details: for Additional odor: added to SONDALIS, 41 mM, 121° C. for 15 minutes in an autoclave
Description: Cystathionine is found to be a very stable amino acid. It was tested while added to SONDALIS (trademark), and compared to cysteine in equivalent molar concentration (41 mM, i.e. 5 g of cysteine/L). SONDALIS is an enteral nutrition product comprising 35% of the energy in the form of lipids, 50% in the form of carbohydrates, in particular of maltodextrins, and 15% in the form of proteins, and also vitamins, including vitamins A, B6, B12, C, D, E and K, and mineral salts such as phosphorus and magnesium, inter alia. 1.0 mL of supplemented SONDALIS was brought to 121° C. for 15 minutes in an autoclave. This represents a strong heat treatment, the procedure having lasted more than two hours from the beginning of the handling to the temperature reduction phase. These harsh conditions are confirmed by a thick consistency and a brown color obtained on the product.
The comparative results appear in the table below.
The absence of odor in the cystathionine-supplemented product is a first important element which proves its compatibility with an oral formula, in particular, insofar as the oxidation and decomposition of compounds containing sulfur produce derivatives with a strong unpleasant odor.

SMILES: N[C@@H](CCSC[C@H](N)C(=O)O)C(=O)O [L-cystathionine, cystathionine]
- Additional odor: No additional odor
- release of H2S (added to an enteral solution): no release of H2S

SMILES: N[C@@H](CS)C(=O)O [L-cysteine, cysteine]
- Additional odor: Sulfur-based additional odor
